From article PMC11109111
No constants are given. Whether binding was seen depends on the method and setting. Binding calls can cover weak binding; strength is not graded here. Sequences can lack the tags named with a protein. For some of these results: Binding seen in cells or lysates may run through a third protein.

Legend:
[1] = target: T1, GRAIN WEIGHT 6a (GW6a), yeast two-hybrid fusion used for the screen (rice (Oryza sativa)) (UniProt Q67UR2); test: two-hybrid; yeast two-hybrid screen for proteins that interact with GW6a; no methods given
T1 sequence: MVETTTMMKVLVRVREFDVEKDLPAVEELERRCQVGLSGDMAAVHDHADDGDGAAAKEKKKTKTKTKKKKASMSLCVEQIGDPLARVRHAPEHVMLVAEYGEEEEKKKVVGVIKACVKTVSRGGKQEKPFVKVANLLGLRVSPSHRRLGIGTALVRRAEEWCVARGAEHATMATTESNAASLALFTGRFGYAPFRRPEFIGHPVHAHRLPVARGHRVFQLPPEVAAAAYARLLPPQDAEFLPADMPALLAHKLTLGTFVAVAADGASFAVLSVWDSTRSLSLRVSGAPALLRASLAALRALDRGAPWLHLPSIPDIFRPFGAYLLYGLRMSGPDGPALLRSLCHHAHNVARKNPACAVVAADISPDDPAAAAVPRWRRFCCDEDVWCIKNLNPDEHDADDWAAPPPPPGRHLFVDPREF

[2] = target: T2, GST-GW6a (rice (Oryza sativa)) (UniProt Q67UR2); test: pull-down; GST-tag purification resin incubated with GST or the GST fusion at 4 C for 1 h, then with CLG1-Myc or His-GW6a at 4 C for 1 h; washed with PBS, 0.05% SDS, 1% Triton X-100; immunoblot with anti-GST, anti-Myc or anti-GW6a
T2 sequence: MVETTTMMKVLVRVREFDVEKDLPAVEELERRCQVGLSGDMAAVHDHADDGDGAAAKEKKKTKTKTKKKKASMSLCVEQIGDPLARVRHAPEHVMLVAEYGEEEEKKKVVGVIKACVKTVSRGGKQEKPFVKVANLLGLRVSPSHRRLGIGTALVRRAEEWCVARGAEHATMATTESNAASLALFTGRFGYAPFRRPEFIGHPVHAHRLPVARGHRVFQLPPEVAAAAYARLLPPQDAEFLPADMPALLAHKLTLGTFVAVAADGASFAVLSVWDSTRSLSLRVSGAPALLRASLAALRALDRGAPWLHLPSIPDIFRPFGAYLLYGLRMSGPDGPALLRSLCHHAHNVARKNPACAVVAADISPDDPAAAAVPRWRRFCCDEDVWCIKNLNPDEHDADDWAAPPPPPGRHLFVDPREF

[3] = target: T3, GST-GW6a^S142/T186A (rice (Oryza sativa)) (UniProt Q67UR2); test: as above
T3 sequence: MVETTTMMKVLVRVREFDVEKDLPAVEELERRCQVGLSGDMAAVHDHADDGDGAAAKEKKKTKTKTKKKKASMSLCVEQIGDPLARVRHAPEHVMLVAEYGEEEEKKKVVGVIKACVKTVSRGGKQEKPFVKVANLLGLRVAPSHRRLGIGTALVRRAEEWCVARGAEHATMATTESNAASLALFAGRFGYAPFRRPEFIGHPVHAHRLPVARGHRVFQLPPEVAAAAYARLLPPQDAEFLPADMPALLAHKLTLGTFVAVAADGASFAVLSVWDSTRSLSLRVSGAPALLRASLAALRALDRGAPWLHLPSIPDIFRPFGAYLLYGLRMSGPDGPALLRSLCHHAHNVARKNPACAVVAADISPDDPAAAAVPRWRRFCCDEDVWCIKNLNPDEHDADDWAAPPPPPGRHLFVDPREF

[4] = target: T4, GST-GW6a^S142/T186D (rice (Oryza sativa)) (UniProt Q67UR2); test: as above
T4 sequence: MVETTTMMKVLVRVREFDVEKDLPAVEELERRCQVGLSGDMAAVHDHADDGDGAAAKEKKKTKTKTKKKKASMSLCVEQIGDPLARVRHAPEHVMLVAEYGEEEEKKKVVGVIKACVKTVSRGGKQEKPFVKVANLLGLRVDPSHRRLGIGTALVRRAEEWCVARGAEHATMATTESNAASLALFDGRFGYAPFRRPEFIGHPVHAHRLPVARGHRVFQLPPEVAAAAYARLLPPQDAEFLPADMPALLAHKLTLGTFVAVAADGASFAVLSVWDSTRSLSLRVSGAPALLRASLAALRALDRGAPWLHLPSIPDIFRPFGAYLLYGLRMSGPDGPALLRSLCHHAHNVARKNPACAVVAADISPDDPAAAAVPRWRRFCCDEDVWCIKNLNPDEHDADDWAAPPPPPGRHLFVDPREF

[5] = target: T5, GW6a-nLUC (rice (Oryza sativa)) (UniProt Q67UR2); test: split reporter; split firefly luciferase complementation in N. benthamiana leaves; GW6a-nLUC with CLG1-cLUC, GW2-cLUC or HDR3-cLUC, with or without a third protein as GFP fusion (GW2-GFP, HDR3-GFP, CLG1-GFP); LUC signal by CCD imaging
T5 sequence: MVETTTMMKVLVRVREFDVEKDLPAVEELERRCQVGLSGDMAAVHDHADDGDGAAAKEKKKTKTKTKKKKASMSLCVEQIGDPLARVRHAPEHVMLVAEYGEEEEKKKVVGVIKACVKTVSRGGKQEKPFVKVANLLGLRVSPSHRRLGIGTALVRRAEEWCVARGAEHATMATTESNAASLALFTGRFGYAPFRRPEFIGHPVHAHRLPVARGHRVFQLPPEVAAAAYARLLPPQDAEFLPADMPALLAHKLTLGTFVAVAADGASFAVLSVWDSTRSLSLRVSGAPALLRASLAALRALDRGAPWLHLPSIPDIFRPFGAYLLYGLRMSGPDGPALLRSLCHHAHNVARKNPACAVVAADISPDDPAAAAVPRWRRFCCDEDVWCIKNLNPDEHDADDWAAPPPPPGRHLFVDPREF

[6] = target: T6, nYFP-GW6a (rice protoplasts, pSY736) (rice (Oryza sativa)) (UniProt Q67UR2); test: split reporter; BiFC, split YFP, in rice protoplasts incubated overnight; confocal microscopy
T6 sequence: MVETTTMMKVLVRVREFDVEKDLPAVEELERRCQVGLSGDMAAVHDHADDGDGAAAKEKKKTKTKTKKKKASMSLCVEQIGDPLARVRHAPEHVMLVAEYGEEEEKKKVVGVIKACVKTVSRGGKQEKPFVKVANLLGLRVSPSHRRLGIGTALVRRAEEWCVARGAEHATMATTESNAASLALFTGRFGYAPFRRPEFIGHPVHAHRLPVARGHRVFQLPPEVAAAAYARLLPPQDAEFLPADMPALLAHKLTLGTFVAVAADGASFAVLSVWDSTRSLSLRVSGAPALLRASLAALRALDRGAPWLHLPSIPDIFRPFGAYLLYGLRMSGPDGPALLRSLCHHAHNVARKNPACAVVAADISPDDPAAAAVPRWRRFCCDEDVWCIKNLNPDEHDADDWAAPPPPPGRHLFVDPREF

[7] = target: CLG1-GFP (rice (Oryza sativa)); test: co-IP; N. benthamiana leaves co-expressing GW6a-Myc and the GFP fusion (or GFP), 72 h; total protein on anti-GFP affinity beads, 4 C, 3 h; immunoblot with anti-GFP and anti-Myc

Molecule: CHANG LI GENG 1 (CLG1), hit of the yeast two-hybrid screen (from UniProt Q6AUD8)
- binding [1]: binds

Molecule: CLG1-Myc (E. coli-produced) (rice (Oryza sativa)) (enzyme)
- binding [2]: binds
- binding [3]: binds weakly
- binding [4]: binds

Molecule: CLG1-cLUC (rice (Oryza sativa)) (enzyme)
- binding [5]: binds

Molecule: CLG1-cYFP (rice (Oryza sativa)) (enzyme)
- binding [6]: binds

B1: GW6a-Myc (protein, UniProt Q67UR2 1-419)
chain: MVETTTMMKVLVRVREFDVEKDLPAVEELERRCQVGLSGDMAAVHDHADDGDGAAAKEKKKTKTKTKKKKASMSLCVEQIGDPLARVRHAPEHVMLVAEYGEEEEKKKVVGVIKACVKTVSRGGKQEKPFVKVANLLGLRVSPSHRRLGIGTALVRRAEEWCVARGAEHATMATTESNAASLALFTGRFGYAPFRRPEFIGHPVHAHRLPVARGHRVFQLPPEVAAAAYARLLPPQDAEFLPADMPALLAHKLTLGTFVAVAADGASFAVLSVWDSTRSLSLRVSGAPALLRASLAALRALDRGAPWLHLPSIPDIFRPFGAYLLYGLRMSGPDGPALLRSLCHHAHNVARKNPACAVVAADISPDDPAAAAVPRWRRFCCDEDVWCIKNLNPDEHDADDWAAPPPPPGRHLFVDPREF
- binding [7]: binds
